The assay has as its system MDA-MB-231. Description: cells. Set-up: species or system T47D, MRC-5; MTT cell viability, growth inhibition versus DMSO control, n = 4. The following applies: Homo sapiens, MDA-MB-231, 48 h. As for the experimental part:
Cytotoxicity assays were evaluated against the following cell lines: T-47D ATCC, HTB-133 (hormone-dependent breast cancer), and MRC-5 ATCC, CCL171 (normal embryonic lung) from the American Type Culture Collection (ATCC, Manassas, VA) as well as MDA-MB-231 ((hormone-independent breast cancer) from M.D. Anderson Cancer Center, Houston, TX). […] The cutoff concentration is 50 μg mL^–1. Cell viability was determined using the MTT assay. […] The selectivity index between the T47D cancer cell line and the MRC-5 normal cell line is 13.5. […] In addition, this compound was previously reported to be noncytotoxic to MCF-7 cancer cell line.[36] This means that the growth inhibitory effect of hericerin depends on the types of breast cancer cell. T47D, MDA-MB-231, and MCF-7 are popular models in breast cancer studies. The T47D and MCF-7 are hormone-dependent breast cancer cells, but MDA-MB-231 is a hormone-independent breast cancer cell. […] Thus, hericerin (13) may be a good candidate to develop an anticancer agent against progesterone-sensitive breast cancer cells. Moreover, hericerin was reported to inhibit the growth of A549, SK-OV-3, SK-MEL-2, HCT-15, and HL-60 cancer cell lines.[10],[38] […] First, T47D and MDA-MB-231 breast cancer cells were exposed to compound 13 for 48 h, and the abundance of two apoptotic markers, namely, PARP and procaspase 3, was determined by Western blot.

Counter-ions that a name gives are not always drawn.

With `COc1cccc2c1C(=O)c1c(O)c3c(c(O)c1C2=O)C[C@@](O)(C(=O)CO)C[C@@H]3O[C@H]1C[C@H](N)[C@H](O)[C@H](C)O1` [Doxorubicin·HCl, Doxorubicin hydrochloride], the IC50 turned out to be 2210 ± 230 nM.

The values above are taken from paper PMC10701869, “Anti-Xanthine Oxidase 5′-Hydroxyhericenes A–D from the Edible Mushroom Hericium erinaceus and Structure Revision of 3-[2,3-Dihydroxy-4-(hydroxymethyl)tetrahydrofuran-1-yl]-pyridine-4,5-diol” (ACS Omega, 2023).
